Assay results reported in US10525115B2 (Immatics Biotechnologies GmbH, priority 2014, dated 2020).

Columns and labels:
primary AML samples = test: HLA class I ligandome analysis (W6/32 immunoaffinity purification, LC-MS/MS) of primary AML samples; design: species or system human; conditions: AML patients (n=15)
[1] = tested on: cancer tissues in comparison to non-cancerous tissues and organs; test: Presentation profile / over-presentation by label-free LC-MS (XPRESIDENT), tumor versus normal tissues, other proliferative diseases; design: species or system human; conditions: other proliferative diseases / organs (other than AML) that over- or exclusively present the peptide; Table 5
[2] = HLA class I ligandome, count for the HLA ligand (LiTAP) or, on protein lines, for the source protein (LiTAA)

Substance	Number of positive AMLs (primary AML samples; HLA ligand (LiTAP))	Proliferative disease and location thereof [1]	Number of positive AMLs (primary AML samples; [2])
313 (ALEEQLLKY; listed as Homo sapiens) [compound 313]	3	stomach, adenocarcinoma, malignant fibrous; histiocytoma	
183 (FLSFMNTEL; listed as Homo sapiens) [compound 183]		lung, non-small cell lung carcinoma, stomach, adenocarcinoma	1
178 (HEIDRYTAI; listed as Homo sapiens) [compound 178]		kidney, clear cell renal cell carcinoma, non- Hodgkin's lymphoma	1
218 (DTMPQTYKR; listed as Homo sapiens) [compound 218]		liposarcoma	1
47 (ALRNQATMVQK; listed as Homo sapiens) [compound 47]		stomach, adenocarcinoma, non-Hodgkin's; lymphoma, mycosis fungoides	2
49 (GVLGTVVHGK; listed as Homo sapiens) [compound 49]		colon or rectum, liver, focal nodular hyperplasia	4
19 (NLVEKTPAL; listed as Homo sapiens) [compound 19]		colon or rectum, kidney, carcinoma	1
110 (FQLPGLGTPPIT; listed as Homo sapiens) [compound 110]		lung, non-small cell lung carcinoma, spleen, extramedullary hematopoiesis	1
138 (SVVDLINHY; listed as Homo sapiens) [compound 138]		brain, glioblastoma, bone, non-ossifying fibroma	3
33 (EVVDVTWRY; listed as Homo sapiens) [compound 33]		colon or rectum, lymph node, non-Hodgkin's; lymphoma	4
223 (NEFQSQQNI; listed as Homo sapiens) [compound 223]		kidney, clear cell renal cell carcinoma, spleen, non-Hodgkin's lymphoma	1
320 (GYGSQGYKY; listed as Homo sapiens) [compound 320]	1	breast, carcinoma	
180 (YWVPRNAL; listed as Homo sapiens) [compound 180]		kidney, clear cell renal cell carcinoma, non- Hodgkin's lymphoma	1
261 (DPMAPGVQGSLL; listed as Homo sapiens) [compound 261]	1	lung, non-small cell lung carcinoma, uterine cervix, squamous cell carcinoma	
290 (SARLEKLGY; listed as Homo sapiens) [compound 290]	1	stomach, metastatic, prostate, benign nodular; hyperplasia	
190 (YLAIGIHEL; listed as Homo sapiens) [compound 190]		liver, hepatocellular carcinoma, cancer, liver, hepatocellular carcinoma	1
76 (AVSLIREEW; listed as Homo sapiens) [compound 76]		stomach, adenocarcinoma, white blood cells, chronic lymphocytic leukemia	2
264 (YVHSFLSSGY; listed as Homo sapiens) [compound 264]	3	small Intestine, gastrointestinal stromal tumor	
285 (FEFDIHQVI; listed as Homo sapiens) [compound 285]	2	stomach, metastatic, breast, carcinoma	
278 (RLQGELQAV; listed as Homo sapiens) [compound 278]	3	kidney, clear cell renal cell carcinoma, kidney, renal cell carcinoma	
